No constants are given. Whether binding was seen depends on the method and setting. In cells and extracts the contact can be indirect. A yes stands for co-enrichment or nearness to the bait. Other partners may have been found.
Molecular target: GFP-tagged CSB (UniProt Q03468)
Experiment: affinity purification with mass spectrometry; label-free quantification and iBAQ; GFP-CSB pulled down with GFP Trap beads from U2OS CSB-KO cells; untreated against 20 J/m^2 UV-C with 1 h recovery

Amino acid sequences for entries named in this document (tags omitted).
UniProt Q16531: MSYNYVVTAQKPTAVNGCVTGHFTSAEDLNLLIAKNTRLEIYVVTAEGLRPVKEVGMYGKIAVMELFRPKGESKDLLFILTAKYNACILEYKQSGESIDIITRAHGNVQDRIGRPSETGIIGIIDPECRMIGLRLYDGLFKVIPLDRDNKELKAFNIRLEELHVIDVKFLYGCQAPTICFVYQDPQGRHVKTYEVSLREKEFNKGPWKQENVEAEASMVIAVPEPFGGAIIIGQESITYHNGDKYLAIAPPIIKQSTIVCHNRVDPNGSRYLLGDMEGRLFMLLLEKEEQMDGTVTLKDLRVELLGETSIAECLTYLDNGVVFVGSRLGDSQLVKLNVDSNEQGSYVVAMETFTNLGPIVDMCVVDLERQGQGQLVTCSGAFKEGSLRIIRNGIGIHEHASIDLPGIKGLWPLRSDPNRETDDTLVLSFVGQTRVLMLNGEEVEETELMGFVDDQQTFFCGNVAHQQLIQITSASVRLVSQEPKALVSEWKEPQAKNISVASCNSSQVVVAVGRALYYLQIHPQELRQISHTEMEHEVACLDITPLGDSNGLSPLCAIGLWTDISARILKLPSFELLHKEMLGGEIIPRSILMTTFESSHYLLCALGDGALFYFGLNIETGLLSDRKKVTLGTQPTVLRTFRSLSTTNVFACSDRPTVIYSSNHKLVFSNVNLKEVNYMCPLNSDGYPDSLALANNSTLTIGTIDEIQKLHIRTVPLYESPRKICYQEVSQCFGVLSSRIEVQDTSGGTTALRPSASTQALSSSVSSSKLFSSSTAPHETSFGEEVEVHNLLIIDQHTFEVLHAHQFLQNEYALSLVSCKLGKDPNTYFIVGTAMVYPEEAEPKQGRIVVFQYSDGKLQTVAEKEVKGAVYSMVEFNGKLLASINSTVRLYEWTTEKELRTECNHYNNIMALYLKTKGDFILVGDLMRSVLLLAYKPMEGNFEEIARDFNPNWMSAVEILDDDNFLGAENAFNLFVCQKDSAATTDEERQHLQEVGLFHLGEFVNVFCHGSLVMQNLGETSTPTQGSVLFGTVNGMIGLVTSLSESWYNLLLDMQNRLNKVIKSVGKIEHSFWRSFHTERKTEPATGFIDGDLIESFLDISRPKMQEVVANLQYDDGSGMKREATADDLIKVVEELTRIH
UniProt Q13619: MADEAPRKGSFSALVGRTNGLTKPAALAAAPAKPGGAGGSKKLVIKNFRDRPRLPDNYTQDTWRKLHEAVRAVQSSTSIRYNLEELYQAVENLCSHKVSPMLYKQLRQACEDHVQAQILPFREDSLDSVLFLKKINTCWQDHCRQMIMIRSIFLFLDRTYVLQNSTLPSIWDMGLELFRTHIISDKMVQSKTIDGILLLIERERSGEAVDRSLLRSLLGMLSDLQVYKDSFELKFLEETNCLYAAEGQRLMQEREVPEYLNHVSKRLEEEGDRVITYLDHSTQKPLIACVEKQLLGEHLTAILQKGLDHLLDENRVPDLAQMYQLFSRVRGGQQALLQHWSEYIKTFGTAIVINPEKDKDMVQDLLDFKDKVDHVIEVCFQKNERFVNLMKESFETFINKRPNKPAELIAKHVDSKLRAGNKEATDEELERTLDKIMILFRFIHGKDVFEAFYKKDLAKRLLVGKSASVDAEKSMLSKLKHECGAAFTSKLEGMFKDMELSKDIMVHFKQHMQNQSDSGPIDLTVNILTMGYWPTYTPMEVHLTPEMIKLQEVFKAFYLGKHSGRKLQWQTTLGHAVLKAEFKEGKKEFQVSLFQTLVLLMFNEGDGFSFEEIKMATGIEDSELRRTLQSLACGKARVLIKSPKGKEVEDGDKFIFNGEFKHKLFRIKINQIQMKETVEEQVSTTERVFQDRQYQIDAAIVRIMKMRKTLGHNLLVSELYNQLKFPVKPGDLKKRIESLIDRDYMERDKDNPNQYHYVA

binding	Substance
binds	DDB1, endogenous (from UniProt Q16531 1-1140)
binds	CUL4A, endogenous (from UniProt Q13619 1-759)
